PubChem BioAssay AID1159578 | Peter MacCallum Cancer Centre, 2015

Aim: 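Knock-downs that alter how fast lymphatic endothelial cells migrate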 (primary screen)
System: human lymphatic endothelial cells
Reagent: siRNA pool against human genes, 40 nM
Timing: 48 h after transfection
Measurement: 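High-content imaging of dye-stained cells in a scratch assay measures filled wound area and nuclei per well; duplicate means given as ratio to mock and robust z-score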
Scale: migration robust z-score: higher = faster migration into the scratch; migration relative to mock: higher = more scratch area covered than mock; nuclei per well: higher = more cells in the well
Active means: 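Pools averaging fewer than 3300 nuclei are never called; remaining pools count as changed when migration robust z lies outside -2 to 2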
Calls: active = migration changed; inactive = no migration change, or too few cells
In all, the deposit lists about 18,000 reagents; this is a part drawn at random. About 1,030 of them (5.7%) were called active. 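Inactive calls also include pools with fewer than 3300 nuclei, whose migration was not assessed.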 Raw values are not corrected between plates.

no.	gene knocked down	migration robust z-score	migration class with cell-count check	migration relative to mock	nuclei per well, duplicate mean	activity call
1	ABHD17AP1 (ABHD17A pseudogene 1)	0.47	migration z between -2 and 2; enough cells	1	6132	inactive
2	GAGE7 (G antigen 7)	0.02	migration z between -2 and 2; enough cells	0.88	4721	inactive
3	KLHDC7A (kelch domain containing 7A)	0.66	migration z between -2 and 2; enough cells	1.06	6268	inactive
4	HPRT1 (hypoxanthine phosphoribosyltransferase 1)	0.34	migration z between -2 and 2; enough cells	0.87	5224	inactive
5	ASS1 (argininosuccinate synthase 1)	-1.03	migration z between -2 and 2; enough cells	0.6	5742	inactive
6	WIF1 (Wnt inhibitory factor 1)	0.09	migration z between -2 and 2; enough cells	0.9	7020	inactive
7	LTA (lymphotoxin alpha)	-1.13	migration z between -2 and 2; enough cells	0.59	6445	inactive
8	CASP1 (caspase 1)	0.13	migration z between -2 and 2; enough cells	0.83	4482	inactive
9	EGFL8 (EGF like domain multiple 8)	-0.06	migration z between -2 and 2; enough cells	0.87	5062	inactive
10	NPSR1 (neuropeptide S receptor 1)	1.17	migration z between -2 and 2; enough cells	1.03	7044	inactive
11	FBXW10 (F-box and WD repeat domain containing 10)	-0.8	migration z between -2 and 2; enough cells	0.65	5417	inactive
12	CACNG3 (calcium voltage-gated channel auxiliary subunit gamma 3)	-1.12	migration z between -2 and 2; enough cells	0.59	4876	inactive
13	FSCN3 (fascin actin-bundling protein 3)	-0.25	migration z between -2 and 2; enough cells	0.82	5756	inactive
14	SPRY3 (sprouty RTK signaling antagonist 3)	0	migration z between -2 and 2; enough cells	0.88	4939	inactive
15	C8orf44 (chromosome 8 putative open reading frame 44)	-2.08	migration z below -2; enough cells	0.34	5980	active
16	PARD6A (par-6 family cell polarity regulator alpha)	1.1	migration z between -2 and 2; enough cells	1.18	5142	inactive
17	SERPINB2 (serpin family B member 2)	-1.04	migration z between -2 and 2; enough cells	0.6	5400	inactive
18	BRD8 (bromodomain containing 8)	-0.64	migration z between -2 and 2; enough cells	0.68	6046	inactive
19	ITIH2 (inter-alpha-trypsin inhibitor heavy chain 2)	-1.03	migration z between -2 and 2; enough cells	0.62	6035	inactive
20	MYO10 (myosin X)	-0.42	migration z between -2 and 2; enough cells	0.72	5895	inactive
21	PRKRIP1 (PRKR interacting protein 1)	0.11	migration z between -2 and 2; enough cells	0.82	5807	inactive
22	KRTAP10-2 (keratin associated protein 10-2)	-2.23	migration z below -2; enough cells	0.31	6116	active
23	SPATA25 (spermatogenesis associated 25)	-1.29	migration z between -2 and 2; enough cells	0.54	4362	inactive
24	WASH5P (WASP family homolog 5, pseudogene)	0.78	migration z between -2 and 2; enough cells	1.09	7322	inactive
25	EHMT2 (euchromatic histone lysine methyltransferase 2)	0.2	migration z between -2 and 2; enough cells	0.84	5524	inactive
26	ZNF429 (zinc finger protein 429)	-0.25	migration z between -2 and 2; enough cells	0.82	5842	inactive
27	NXPH3 (neurexophilin 3)	-1.73	migration z between -2 and 2; enough cells	0.44	5440	inactive
28	TDP2 (tyrosyl-DNA phosphodiesterase 2)	-0.65	migration z between -2 and 2; enough cells	0.68	6271	inactive
29	PLA2G2A (phospholipase A2 group IIA)	0.7	migration z between -2 and 2; enough cells	0.94	6004	inactive
30	PRUNE2 (prune homolog 2 with BCH domain)	-0.13	migration z between -2 and 2; enough cells	0.86	6131	inactive
31	KCTD12 (potassium channel tetramerization domain containing 12)	-0.03	migration z between -2 and 2; enough cells	0.8	5132	inactive
32	NPHP4 (nephrocystin 4)	0.77	migration z between -2 and 2; enough cells	1.08	6626	inactive
33	PPP2R5D (protein phosphatase 2 regulatory subunit B'delta)	-0.64	migration z between -2 and 2; enough cells	0.68	4855	inactive
34	LIG3 (DNA ligase 3)	0.34	migration z between -2 and 2; enough cells	0.87	6150	inactive
35	RCOR2 (REST corepressor 2)	0.5	migration z between -2 and 2; enough cells	1.02	5824	inactive
36	KLRG1 (killer cell lectin like receptor G1)	-0.6	migration z between -2 and 2; enough cells	0.69	5524	inactive
37	LZTS1 (leucine zipper tumor suppressor 1)	-0.83	migration z between -2 and 2; enough cells	0.64	4248	inactive
38	UGT2B11 (UDP glucuronosyltransferase family 2 member B11)	0.32	migration z between -2 and 2; enough cells	0.86	5562	inactive
39	ZNF3 (zinc finger protein 3)	-0.34	migration z between -2 and 2; enough cells	0.8	4895	inactive

Reagents listed so far called active (2):
gene knocked down	migration robust z-score	migration class with cell-count check	migration relative to mock	nuclei per well, duplicate mean	activity call
C8orf44 (chromosome 8 putative open reading frame 44)	-2.08	migration z below -2; enough cells	0.34	5980	active
KRTAP10-2 (keratin associated protein 10-2)	-2.23	migration z below -2; enough cells	0.31	6116	active
